Data as given in patent publication US20090192137A1, “Dialysis method” (AstraZeneca AB, priority 1993, published 2009).

What was measured:
[1] = Haemodialysis simulation, filtration of melagatran in an open single pass system; format: in vitro ADME
[2] = Haemodialysis simulation, filtration of melagatran in a closed system of re-circulation; format: in vitro ADME
[3] = steady state after about 5 minutes

In the case of `N=C(N)c1ccc(CNC(=O)[C@@H]2CCN2C(=O)[C@H](NCC(=O)O)C2CCCCC2)cc1` [melagatran, HOOC—CH2—(R)Cgl-Aze-Pab-H], the “concentration of melagatran on the Recipient side (outlet A), plateau” value ([1]; after 5 minutes) is reported as “about 130 nM”, the “fall of melagatran concentration on the Donor side” value ([1]; inlet C versus outlet B at steady state) is reported as “about 130 nM” and the “time to experimental steady state” value ([1]; open single pass system, dialysis fluid about 0.2 μM melagatran) is reported as “about 5 minutes”. The “concentration of melagatran at inlet C on the Donor side” value [1, 3] was “about 180 nM”, the “concentration of melagatran at outlet B on the Donor side” value [1, 3] was “about 50 nM” and the “diffusion gradient across the membrane” value ([1]; steady state, anti-parallel flows) was “about 50 nM”. The “concentration of melagatran at donor side in- and outlets” value ([2]; after about 2 hours, equilibrated) was “around 180 nM”, the “concentration of melagatran in the tank (Recipient side), level-off” value ([2]; after about 2 hours, with some delay compared to the Donor side) was “around 180 mM” and the “time until the system had equilibrated” value ([2]; closed system, tank with 15 L saline) was “about 2 hours”. The “gradient between inlet C and outlet B on the Donor side” value ([2]; when concentrations on the recipient side were small) was “about 130 nM”.
